Results taken from PubChem BioAssay AID540256 (National Center for Advancing Translational Sciences (NCATS), 2011).
About 3,700 (1.2%) of roughly 300,000 compounds were called active. The inconclusive results got no clear call from the source; some entries with a clear call stand among them for comparison. Calls come from the whole dose curve; tested in HEK293 cells. Where the call is inconclusive, the potency comes from a doubtful curve fit.

Test: qHTS for Inhibitors of binding or entry into cells for Lassa Virus; note: nearly all actives have a fitted effect of over 50% in size
Conditions: Lassa virus pseudotype entry inhibition, cell reporter; activity change, negative = inhibition: at 37.9 µM (top of the series) unless noted
% is set by controls: 0 for no effect and ±100 for the full control effect; potency is the fitted concentration of half-maximal effect.

With `COc1cccc(OC)c1OCCNCC1CSc2ccccc2O1` (stereo not given) as the compound, how does the Potency read?
Its Potency is inconclusive: 16.4 µM [inhibitor, partial curve].

For `O=C(Nc1ccc2oc(-c3ccccc3)nc2c1)C1CCCO1` (stereo not given), which Potency is on record?
The Potency was inconclusive: 0.891 µM [activator, single point].

With `O=C(Nc1ccncc1)c1cc(-c2cccc(Br)c2)nc2ccccc12` as the compound, how does the Potency read?
Its Potency is inconclusive: 4.47 µM [inhibitor, single point].

Which “activity change, negative = inhibition” value does the source give for `CC(=O)[C@@H]1[C@@H](C(=O)c2ccccc2)[C@]2(C(=O)Nc3ccccc32)[C@H]2C=Cc3cc(F)ccc3N12` here?
Its value is inactive: -3.07%.

Which Potency does the source give for `CCCC=Cc1ccc(CN2C(CC(C)C)C(=O)N(Cc3cn(Cc4ccco4)nn3)CCS2(=O)=O)cc1` (stereo not given) here?
Its Potency is inconclusive: 4.99 µM [inhibitor, full curve, poor fit].

With `Cc1ccc(N2C(=O)CS(=O)(=O)C23C(=O)N(Cc2ccccc2F)c2ccccc23)cc1Cl` (stereo not given) as the compound, how does the Potency read?
The Potency was inconclusive: 3.55 µM [activator, single point].

For `CCOC(=O)C1=C(CN2CCc3ccccc32)NC(=O)NC1c1cc(C)ccc1C` (stereo not given), which Potency is on record?
Its Potency is inconclusive: 18.3 µM [inhibitor, single point].

Which “activity change, negative = inhibition” value does the source give for `O=C(c1ccc2c(c1)OCO2)N1CCN(c2ccc(C(F)(F)F)cn2)CC1` here?
The value was inactive: -9.16%.

Which Potency does the source give for `CCCCC(=O)Nc1ccccc1N1CCN(c2ccc(F)cc2)CC1` here?
Its Potency is inconclusive: 14.1 µM [inhibitor, partial curve, poor fit].

For `CC(C)(C)c1ccc(C(=O)Nc2cccc3ncccc23)cc1`, which Potency is on record?
The Potency was inconclusive: 35.5 µM [inhibitor, single point].

Which “activity change, negative = inhibition” value does the source give for `CC(=O)Nc1cccc(NC(=S)Nc2cccc(Cl)c2Cl)c1` here?
The value was inactive: -1.14%.

With `Cc1c(N(C)C(=O)C2CCCN2S(=O)(=O)c2ccccc2)c(=O)n(-c2ccccc2)n1C` (stereo not given) as the compound, how does the “activity change, negative = inhibition” value read?
The value was inactive: 16.8%.

Which Potency does the source give for `COc1ccc(S(=O)(=O)N2CCCCCC2)cc1C(=O)N(C)Cc1ccc(F)cc1` here?
Its Potency is inconclusive: 10 µM [inhibitor, partial curve, poor fit].

For `CCOC(=O)c1nc(Nc2ccc(Cl)cc2)c2c(C)noc2n1`, which “activity change, negative = inhibition” value is on record?
The value was inactive: 8.93% [at 46.1 µM].

With `O=c1c2oc3ccccc3c2ncn1Cc1ccc(F)cc1` as the compound, how does the Potency read?
The Potency was inconclusive: 11.2 µM [activator, partial curve, poor fit].

For `CC(C)c1ccc(C(=O)NN2C(=O)C3CCCCC3C2=O)cc1` (stereo not given), which Potency is on record?
Its Potency is inconclusive: 10 µM [inhibitor, partial curve, poor fit].

For `CCCN1CCCc2cc(CN)ccc21`, which Potency is on record?
Its Potency is inconclusive: 3.66 µM [inhibitor, partial curve, poor fit].

With `Cc1ccc(Cl)cc1N1CCN(C(=O)c2cn(CC(C)C)c(=O)c3c2c2ccccc2n3C)CC1` as the compound, how does the Potency read?
Its Potency is inconclusive: 11.2 µM [inhibitor, partial curve].

With `CCOC(=O)c1[nH]c2ccccc2c1NC(=O)c1ccccc1OC` as the compound, how does the Potency read?
Its Potency is inconclusive: 22.4 µM [inhibitor, single point].

With `Cc1ccccc1C(=O)Nc1cccc(C(=O)N/N=C/c2ccc3c(c2)OCO3)c1` as the compound, how does the Potency read?
Its Potency is inconclusive: 5.62 µM [inhibitor, partial curve].

Which “activity change, negative = inhibition” value does the source give for `Cc1ccc(S(=O)(=O)N(C)C)cc1NC(=O)COC(=O)Cc1ccc(Br)cc1` here?
The value was inactive: 12.5%.

With `CC(C)n1cc2c(N)ncnc2n1` as the compound, how does the “activity change, negative = inhibition” value read?
The value was inactive: 3.91%.

Which “activity change, negative = inhibition” value does the source give for `O=C(CCN1CCCCC1c1cccnc1)NCc1ccccc1` (stereo not given) here?
Its value is inactive: -8%.

For `COc1ccc(NC(=O)c2c(C)cc(=O)oc2C)c(OC)c1`, which “activity change, negative = inhibition” value is on record?
The value was inactive: 26.5%.

For `Cc1cccnc1NC(=S)NC(=O)c1cccs1`, which Potency is on record?
Its Potency is inconclusive: 0.366 µM [activator, full curve, poor fit].

For `O=C(NCc1ccccn1)Nc1ccc2c(c1)OCO2`, which “activity change, negative = inhibition” value is on record?
Its value is inactive: 21.3%.

Which Potency does the source give for `COc1ccc(CNc2nc(-c3ccco3)nn2C(=O)CC(C)C)cc1` here?
The Potency was inconclusive: 3.55 µM [activator, partial curve, poor fit].

With `Cc1ccc(S(=O)(=O)N[C@H](C(=O)OCC(=O)NC(=O)C2CCCCC2)C(C)C)cc1` as the compound, how does the “activity change, negative = inhibition” value read?
The value was inactive: -0.238%.

Which Potency does the source give for `Fc1ccccc1CNC(=S)Nc1cccc(C(F)(F)F)c1` here?
The Potency was inconclusive: 20 µM [inhibitor, partial curve, poor fit].

With `CCOc1ccccc1/C=C(/NC(=O)c1ccccc1)C(=O)NCC(=O)O` as the compound, how does the Potency read?
Its Potency is inconclusive: 35.5 µM [activator, single point].

For `c1ccc(-c2ccc(-c3cn4c(n3)CCC4)cc2)cc1`, which Potency is on record?
The Potency was active: 10 µM.

With `Cc1cc(S(=O)(=O)n2ccnc2C(C)C)cc([N+](=O)[O-])c1C` as the compound, how does the Potency read?
Its Potency is inconclusive: 12.6 µM [activator, single point].

With `O=c1c2ccccc2nc2n1C(CBr)CS2` (stereo not given) as the compound, how does the “activity change, negative = inhibition” value read?
Its value is inactive: 11.4%.

For `CC1CC(C)(O)CC(C(O)CC2CC(=O)NC(=O)C2)C1=O` (stereo not given), which Potency is on record?
Its Potency is active: 0.398 µM.

With `Cn1c(=O)n(CCOc2ccc([N+](=O)[O-])cc2)c2ccccc21` as the compound, how does the “activity change, negative = inhibition” value read?
The value was inactive: 2.17%.

Which “activity change, negative = inhibition” value does the source give for `CCc1ccc(CNC(=O)C(CC)n2nc(C)c3c(C)n(-c4ccccc4)nc3c2=O)cc1` (stereo not given) here?
Its value is inactive: -1.73% [at 46.1 µM].

With `COc1ccc(N=C2SCC(c3ccc(C)cc3)=NN2CCO)cc1` as the compound, how does the Potency read?
Its Potency is inconclusive: 25.1 µM [inhibitor, single point].

For `O=C(NC1=NCCS1)c1csc2ccccc12`, which Potency is on record?
The Potency was inconclusive: 2.91 µM [activator, partial curve].

With `CC1CCc2nc(NC(=O)c3ccco3)sc2C1` (stereo not given) as the compound, how does the Potency read?
Its Potency is active: 0.282 µM.

Which Potency does the source give for `Cc1ccc(-c2cc(C(F)F)nc(NCc3cccs3)n2)cc1` here?
The Potency was inconclusive: 25.1 µM [inhibitor, single point].

With `COc1ccccc1-c1c(C#N)c(N)nc2c1CCc1ccccc1-2` as the compound, how does the Potency read?
The Potency was inconclusive: 7.31 µM [inhibitor, partial curve].

With `OCCN(CCO)c1ccc(C(c2ccc(Cl)cc2)c2ccc(N(CCO)CCO)cc2Cl)c(Cl)c1` as the compound, how does the Potency read?
The Potency was inconclusive: 7.08 µM [inhibitor, partial curve, poor fit].

Which Potency does the source give for `O=C(N/N=C/c1cc(Br)cc(Br)c1O)c1ccncc1` here?
The Potency was inconclusive: 8.91 µM [inhibitor, partial curve, poor fit].

With `CN(C(=O)Cc1c(C(=O)O)n(C)c2ccccc12)c1ccc(Cl)cc1` as the compound, how does the Potency read?
The Potency was inconclusive: 3.98 µM [activator, full curve, poor fit].

For `O=c1c2sccc2nc(SCc2cc(=O)n3ccccc3n2)n1-c1ccc(Br)cc1`, which Potency is on record?
Its Potency is inconclusive: 0.116 µM [inhibitor, full curve, poor fit].
